From publication PMC8079276 come the findings set out here.

Chains of the proteins cited; added tags and fusions are not shown.
UniProt A2AQH4: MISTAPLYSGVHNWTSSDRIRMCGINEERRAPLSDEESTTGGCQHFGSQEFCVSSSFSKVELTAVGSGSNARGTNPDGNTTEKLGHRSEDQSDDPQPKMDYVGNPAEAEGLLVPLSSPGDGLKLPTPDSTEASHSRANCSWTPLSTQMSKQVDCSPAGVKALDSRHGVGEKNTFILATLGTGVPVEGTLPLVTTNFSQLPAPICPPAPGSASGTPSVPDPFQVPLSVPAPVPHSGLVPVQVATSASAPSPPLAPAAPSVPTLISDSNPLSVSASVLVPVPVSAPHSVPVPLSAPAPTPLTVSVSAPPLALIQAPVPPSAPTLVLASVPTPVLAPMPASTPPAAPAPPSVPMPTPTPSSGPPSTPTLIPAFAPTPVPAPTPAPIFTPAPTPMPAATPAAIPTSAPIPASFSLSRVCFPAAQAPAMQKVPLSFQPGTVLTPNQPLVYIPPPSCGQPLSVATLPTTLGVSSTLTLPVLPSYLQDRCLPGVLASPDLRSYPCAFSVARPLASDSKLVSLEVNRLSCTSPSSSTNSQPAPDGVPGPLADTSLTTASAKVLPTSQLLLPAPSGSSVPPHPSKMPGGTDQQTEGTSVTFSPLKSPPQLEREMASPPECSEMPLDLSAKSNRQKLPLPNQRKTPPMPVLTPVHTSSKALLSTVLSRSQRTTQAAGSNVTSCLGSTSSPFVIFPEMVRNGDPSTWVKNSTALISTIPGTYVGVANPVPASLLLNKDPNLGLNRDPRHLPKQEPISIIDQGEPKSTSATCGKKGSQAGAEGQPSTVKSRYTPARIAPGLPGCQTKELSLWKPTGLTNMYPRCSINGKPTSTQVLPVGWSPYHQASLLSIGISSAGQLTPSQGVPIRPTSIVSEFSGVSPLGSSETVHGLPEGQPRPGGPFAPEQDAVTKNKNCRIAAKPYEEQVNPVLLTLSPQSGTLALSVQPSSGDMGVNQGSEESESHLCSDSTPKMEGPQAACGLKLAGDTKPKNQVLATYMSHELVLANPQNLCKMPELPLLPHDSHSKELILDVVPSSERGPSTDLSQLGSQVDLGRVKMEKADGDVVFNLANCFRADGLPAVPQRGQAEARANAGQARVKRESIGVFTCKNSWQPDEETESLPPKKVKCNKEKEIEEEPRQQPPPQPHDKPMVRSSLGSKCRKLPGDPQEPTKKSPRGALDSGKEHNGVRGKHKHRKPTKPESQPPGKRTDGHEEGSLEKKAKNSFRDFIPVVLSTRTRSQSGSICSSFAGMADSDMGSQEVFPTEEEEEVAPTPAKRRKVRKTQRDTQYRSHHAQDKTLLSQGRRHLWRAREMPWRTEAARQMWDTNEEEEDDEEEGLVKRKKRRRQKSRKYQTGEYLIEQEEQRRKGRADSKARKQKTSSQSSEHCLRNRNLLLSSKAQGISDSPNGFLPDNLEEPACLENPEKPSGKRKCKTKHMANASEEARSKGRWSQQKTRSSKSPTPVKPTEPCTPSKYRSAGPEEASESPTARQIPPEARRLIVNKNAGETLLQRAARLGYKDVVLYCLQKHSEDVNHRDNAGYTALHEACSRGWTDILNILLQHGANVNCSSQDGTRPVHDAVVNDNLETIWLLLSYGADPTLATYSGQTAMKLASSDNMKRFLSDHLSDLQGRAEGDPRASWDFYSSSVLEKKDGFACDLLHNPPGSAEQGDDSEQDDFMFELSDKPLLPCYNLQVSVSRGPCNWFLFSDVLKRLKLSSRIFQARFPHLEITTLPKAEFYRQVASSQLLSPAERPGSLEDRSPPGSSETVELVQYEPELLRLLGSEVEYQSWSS
UniProt Q3UHF7: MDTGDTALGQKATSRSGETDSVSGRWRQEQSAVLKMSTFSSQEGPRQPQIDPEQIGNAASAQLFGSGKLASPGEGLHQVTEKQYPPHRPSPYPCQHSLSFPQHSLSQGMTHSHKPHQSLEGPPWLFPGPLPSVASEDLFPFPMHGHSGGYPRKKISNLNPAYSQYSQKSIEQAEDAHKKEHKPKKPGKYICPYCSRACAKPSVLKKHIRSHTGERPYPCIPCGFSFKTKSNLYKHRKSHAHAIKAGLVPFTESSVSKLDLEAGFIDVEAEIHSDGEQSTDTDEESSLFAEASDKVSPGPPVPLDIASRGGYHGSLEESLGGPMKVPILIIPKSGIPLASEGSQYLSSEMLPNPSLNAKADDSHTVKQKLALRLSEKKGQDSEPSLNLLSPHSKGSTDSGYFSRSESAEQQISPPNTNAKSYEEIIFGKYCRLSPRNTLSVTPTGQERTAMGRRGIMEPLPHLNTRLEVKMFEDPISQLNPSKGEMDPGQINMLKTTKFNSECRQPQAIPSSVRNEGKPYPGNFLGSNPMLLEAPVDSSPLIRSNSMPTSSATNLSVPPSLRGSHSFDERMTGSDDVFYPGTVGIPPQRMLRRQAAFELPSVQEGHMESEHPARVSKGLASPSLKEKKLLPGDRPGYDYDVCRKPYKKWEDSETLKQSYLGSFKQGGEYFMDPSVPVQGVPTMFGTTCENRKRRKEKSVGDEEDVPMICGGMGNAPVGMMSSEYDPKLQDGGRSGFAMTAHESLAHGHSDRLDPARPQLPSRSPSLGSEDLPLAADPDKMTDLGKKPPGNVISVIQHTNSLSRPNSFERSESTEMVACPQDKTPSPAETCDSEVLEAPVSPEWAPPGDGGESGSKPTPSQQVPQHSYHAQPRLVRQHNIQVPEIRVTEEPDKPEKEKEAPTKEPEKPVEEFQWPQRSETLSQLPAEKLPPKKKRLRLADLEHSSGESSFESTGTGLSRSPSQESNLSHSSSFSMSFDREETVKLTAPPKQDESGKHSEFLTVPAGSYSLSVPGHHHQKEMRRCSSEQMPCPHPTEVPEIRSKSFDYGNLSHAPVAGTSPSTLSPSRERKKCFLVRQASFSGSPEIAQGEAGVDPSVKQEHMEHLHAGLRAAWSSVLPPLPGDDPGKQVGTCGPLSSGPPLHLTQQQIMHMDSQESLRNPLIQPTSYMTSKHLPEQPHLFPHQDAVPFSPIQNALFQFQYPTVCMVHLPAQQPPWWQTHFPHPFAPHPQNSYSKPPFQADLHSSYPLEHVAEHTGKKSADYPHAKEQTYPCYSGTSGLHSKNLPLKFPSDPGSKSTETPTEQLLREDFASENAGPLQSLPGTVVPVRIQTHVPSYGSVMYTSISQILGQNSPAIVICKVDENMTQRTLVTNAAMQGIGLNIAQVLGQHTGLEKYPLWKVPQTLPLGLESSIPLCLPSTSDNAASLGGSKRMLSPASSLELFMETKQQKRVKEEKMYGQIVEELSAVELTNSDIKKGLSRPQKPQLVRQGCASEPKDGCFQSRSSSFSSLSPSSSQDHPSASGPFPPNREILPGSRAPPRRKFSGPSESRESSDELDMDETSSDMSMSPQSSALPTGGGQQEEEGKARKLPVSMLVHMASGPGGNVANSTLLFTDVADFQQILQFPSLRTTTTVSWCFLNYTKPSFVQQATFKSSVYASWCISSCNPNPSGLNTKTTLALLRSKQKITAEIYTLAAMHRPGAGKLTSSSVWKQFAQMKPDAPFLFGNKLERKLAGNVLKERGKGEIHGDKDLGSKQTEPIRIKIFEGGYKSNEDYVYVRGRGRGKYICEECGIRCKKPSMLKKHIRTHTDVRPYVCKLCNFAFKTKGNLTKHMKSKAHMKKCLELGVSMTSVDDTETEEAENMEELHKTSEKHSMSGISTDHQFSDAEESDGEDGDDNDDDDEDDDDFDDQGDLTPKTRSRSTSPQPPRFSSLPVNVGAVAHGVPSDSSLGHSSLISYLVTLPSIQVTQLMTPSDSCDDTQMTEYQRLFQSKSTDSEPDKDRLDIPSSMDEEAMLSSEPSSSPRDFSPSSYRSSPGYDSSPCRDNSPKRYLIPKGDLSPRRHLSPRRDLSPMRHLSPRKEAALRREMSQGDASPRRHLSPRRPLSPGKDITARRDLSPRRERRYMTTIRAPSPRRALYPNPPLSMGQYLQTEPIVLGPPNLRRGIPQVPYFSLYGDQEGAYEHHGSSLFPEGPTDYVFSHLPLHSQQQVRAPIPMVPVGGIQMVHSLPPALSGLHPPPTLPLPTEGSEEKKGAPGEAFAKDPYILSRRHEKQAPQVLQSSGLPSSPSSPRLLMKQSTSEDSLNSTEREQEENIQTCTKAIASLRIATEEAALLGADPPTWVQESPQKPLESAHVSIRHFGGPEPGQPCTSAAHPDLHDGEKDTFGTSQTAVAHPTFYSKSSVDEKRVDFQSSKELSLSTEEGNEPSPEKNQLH
UniProt A2RSY1: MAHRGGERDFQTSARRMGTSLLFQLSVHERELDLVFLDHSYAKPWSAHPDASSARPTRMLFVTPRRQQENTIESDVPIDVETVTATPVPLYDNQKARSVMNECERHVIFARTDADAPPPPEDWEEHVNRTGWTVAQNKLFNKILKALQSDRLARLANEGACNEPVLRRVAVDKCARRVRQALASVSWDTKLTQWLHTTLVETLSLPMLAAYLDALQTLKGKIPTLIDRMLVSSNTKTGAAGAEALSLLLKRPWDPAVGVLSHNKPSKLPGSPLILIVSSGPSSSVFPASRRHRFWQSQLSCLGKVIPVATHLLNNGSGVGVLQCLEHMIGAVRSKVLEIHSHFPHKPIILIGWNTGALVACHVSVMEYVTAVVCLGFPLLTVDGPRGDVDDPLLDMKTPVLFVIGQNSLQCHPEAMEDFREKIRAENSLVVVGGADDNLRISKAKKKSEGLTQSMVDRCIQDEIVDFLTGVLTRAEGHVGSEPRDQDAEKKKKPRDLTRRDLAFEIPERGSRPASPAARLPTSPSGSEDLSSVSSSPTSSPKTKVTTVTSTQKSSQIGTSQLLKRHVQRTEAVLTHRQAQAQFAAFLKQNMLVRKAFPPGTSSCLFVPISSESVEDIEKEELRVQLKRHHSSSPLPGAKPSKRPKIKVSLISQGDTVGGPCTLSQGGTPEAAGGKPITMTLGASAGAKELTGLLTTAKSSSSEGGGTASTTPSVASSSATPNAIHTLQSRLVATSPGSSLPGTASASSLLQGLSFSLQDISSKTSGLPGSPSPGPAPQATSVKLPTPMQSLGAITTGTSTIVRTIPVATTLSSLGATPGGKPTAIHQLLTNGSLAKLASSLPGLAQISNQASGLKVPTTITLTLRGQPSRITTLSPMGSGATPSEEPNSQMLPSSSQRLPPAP
UniProt P52479: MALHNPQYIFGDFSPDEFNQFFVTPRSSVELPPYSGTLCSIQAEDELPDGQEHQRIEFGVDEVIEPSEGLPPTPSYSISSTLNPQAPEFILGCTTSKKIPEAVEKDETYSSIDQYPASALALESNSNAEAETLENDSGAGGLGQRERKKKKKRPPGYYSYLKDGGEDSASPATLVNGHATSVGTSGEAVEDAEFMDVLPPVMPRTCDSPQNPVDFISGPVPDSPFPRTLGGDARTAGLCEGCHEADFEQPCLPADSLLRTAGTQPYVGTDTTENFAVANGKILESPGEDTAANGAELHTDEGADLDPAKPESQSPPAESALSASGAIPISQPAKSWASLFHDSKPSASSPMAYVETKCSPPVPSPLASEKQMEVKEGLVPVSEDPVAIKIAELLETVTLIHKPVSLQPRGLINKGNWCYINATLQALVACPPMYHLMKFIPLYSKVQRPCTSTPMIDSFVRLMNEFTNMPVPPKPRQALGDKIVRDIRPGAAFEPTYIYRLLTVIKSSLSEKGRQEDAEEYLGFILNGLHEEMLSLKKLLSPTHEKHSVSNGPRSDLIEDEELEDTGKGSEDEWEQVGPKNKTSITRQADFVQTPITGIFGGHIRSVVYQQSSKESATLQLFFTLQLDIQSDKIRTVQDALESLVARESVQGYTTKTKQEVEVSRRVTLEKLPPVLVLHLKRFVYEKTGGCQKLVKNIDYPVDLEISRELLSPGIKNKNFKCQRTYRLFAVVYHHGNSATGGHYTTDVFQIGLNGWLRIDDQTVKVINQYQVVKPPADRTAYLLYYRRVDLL
UniProt Q9CWW7: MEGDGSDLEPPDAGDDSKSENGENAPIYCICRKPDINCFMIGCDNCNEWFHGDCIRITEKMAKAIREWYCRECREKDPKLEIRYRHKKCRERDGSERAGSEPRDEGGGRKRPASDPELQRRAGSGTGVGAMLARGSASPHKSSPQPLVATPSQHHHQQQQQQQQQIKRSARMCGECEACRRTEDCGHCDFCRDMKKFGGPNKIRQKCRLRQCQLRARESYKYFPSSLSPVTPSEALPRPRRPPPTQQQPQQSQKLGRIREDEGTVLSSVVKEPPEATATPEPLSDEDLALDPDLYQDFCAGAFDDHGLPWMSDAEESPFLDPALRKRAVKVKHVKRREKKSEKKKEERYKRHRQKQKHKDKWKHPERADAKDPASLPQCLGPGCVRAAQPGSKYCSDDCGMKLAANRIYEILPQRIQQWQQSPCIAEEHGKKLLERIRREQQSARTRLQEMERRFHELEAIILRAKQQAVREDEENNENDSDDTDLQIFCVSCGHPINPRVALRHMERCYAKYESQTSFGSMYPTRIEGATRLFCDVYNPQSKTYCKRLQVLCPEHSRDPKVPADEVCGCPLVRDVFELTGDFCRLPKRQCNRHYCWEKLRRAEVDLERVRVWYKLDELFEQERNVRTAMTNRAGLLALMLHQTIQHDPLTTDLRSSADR

Assay [1] deals with T1, UDP-N-acetylglucosamine-peptide N-acetylglucosaminyltransferase (mouse (endogenous in MEFs)) (UniProt Q8CGY8).
T1 sequence: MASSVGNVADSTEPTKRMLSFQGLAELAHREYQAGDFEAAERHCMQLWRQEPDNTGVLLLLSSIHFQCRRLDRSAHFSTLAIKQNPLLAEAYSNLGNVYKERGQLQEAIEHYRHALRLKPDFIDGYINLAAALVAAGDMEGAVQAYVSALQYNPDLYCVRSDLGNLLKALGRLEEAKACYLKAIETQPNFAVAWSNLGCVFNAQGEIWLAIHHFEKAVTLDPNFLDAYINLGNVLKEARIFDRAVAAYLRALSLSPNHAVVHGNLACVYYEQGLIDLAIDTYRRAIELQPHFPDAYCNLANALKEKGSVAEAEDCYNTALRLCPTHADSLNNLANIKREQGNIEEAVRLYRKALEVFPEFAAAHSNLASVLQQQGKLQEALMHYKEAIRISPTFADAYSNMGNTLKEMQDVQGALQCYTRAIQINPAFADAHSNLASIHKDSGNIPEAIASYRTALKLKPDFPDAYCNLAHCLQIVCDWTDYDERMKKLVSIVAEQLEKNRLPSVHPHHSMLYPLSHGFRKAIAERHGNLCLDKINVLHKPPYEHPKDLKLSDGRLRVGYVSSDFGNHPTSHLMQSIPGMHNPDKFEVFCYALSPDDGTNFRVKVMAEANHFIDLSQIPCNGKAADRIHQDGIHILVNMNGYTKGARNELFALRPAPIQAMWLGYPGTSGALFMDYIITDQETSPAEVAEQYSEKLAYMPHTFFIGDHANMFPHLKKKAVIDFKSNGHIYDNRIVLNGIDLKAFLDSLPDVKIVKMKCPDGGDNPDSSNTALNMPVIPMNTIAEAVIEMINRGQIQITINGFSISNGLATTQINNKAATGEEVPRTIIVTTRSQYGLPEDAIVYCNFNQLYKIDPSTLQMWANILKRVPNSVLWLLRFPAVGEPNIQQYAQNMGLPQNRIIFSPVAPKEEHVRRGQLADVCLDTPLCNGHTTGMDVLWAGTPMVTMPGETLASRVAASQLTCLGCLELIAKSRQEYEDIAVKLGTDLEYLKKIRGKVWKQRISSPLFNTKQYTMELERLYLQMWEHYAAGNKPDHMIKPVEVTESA
Kind of assay: affinity purification with mass spectrometry; endogenous OGT immunoprecipitated (antibody AL24, protein G magnetic beads, TCL buffer: 50 mM Tris HCl, 150 mM NaCl, pH 7.5, 1% NP-40, 2 mM EDTA) from a 1:1:1 mix of SILAC-labelled lysates of WT, H2O2-treated (2.5 mM, 1.5 h) and OGT-null MEFs, precleared with rabbit IgG; in-gel trypsin digestion, LC-MS/MS; interactor if log2 WT or H2O2/null >=1 in 2 or more replicates.

In assay [2] the target is T1, UDP-N-acetylglucosamine-peptide N-acetylglucosaminyltransferase (mouse (endogenous in MEFs)). The assay can be described thus: affinity purification with mass spectrometry; endogenous OGT immunoprecipitated (antibody AL24) independently from WT, H2O2-treated (2.5 mM, 1.5 h) and OGT-null MEF lysates; tryptic digestion; label-free parallel reaction monitoring (PRM) of chosen peptides, normalised to OGT peptides.

No constants are given. Whether binding was seen depends on the method and setting. Binding seen in cells or lysates may run through a third protein. A yes stands for co-enrichment or nearness to the bait. Other partners may have been found. Where a sequence is shown, tags or fusion partners need not be part of it.

Take Eif3h (from UniProt Q91WK2 1-352): the binding entry in assay [1] is “binds”.
Take Anp32b (from UniProt Q9EST5 1-272): the binding entry in assay [1] is recorded as “binds”.
As for Zc3h13 (from UniProt E9Q784 1-1729), the binding entry in assay [1] is reported as “binds”.
Turning to “BCL-6 corepressor-like protein 1 isoform X1 (from UniProt A2AQH4 1-1781)”, the binding entry in assay [1] is reported as “binds”.
As to “5'-AMP–activated protein kinase subunit gamma-1 (from UniProt O54950 1-330)”, the binding entry in assay [1] is listed as “binds”.
On the same count and under the same terms, as for “Transcription factor HIVEP3 isoform X1 (from UniProt A2A884 1-2348)”, the entry is “binds”; as for “Serine/threonine-protein kinase WNK1 isoform X1 (from UniProt P83741 1-2377)”, “binds”.
For Aars (from UniProt Q8BGQ7 1-968), the binding entry in assay [1] is on record as “binds”.
With “Abnormal spindle-like microcephaly-associated protein homolog (from UniProt Q8CJ27-1 1-3122)”, the binding entry in assay [1] was “binds”.
In the case of Nsun2 (from UniProt Q1HFZ0 1-757), in assay [1], the binding entry is given as “binds”.
The same measure, in the same setting: as for “CCR4-NOT transcription complex subunit 1 isoform X1 (from UniProt Q6ZQ08 1-2375)”, the entry is “binds”; as for Ndufs1 (from UniProt Q91VD9 24-727), “binds”; as for Rrm2 (from UniProt P11157 1-390), “binds”.
With Chd2 (from UniProt E9PZM4 1-1827), the binding entry in assay [1] is “binds”.
Regarding “Putative polycomb group protein ASXL1 (from UniProt P59598 1-1514)”, the binding result in assay [1] is given as “binds”.
The same measure, in the same setting: as for “kinesin heavy chain (mouse (endogenous in MEFs))”, the entry is “binds”; as for Chd3 (mouse (endogenous in MEFs)), “binds”; as for “tet methylcytosine dioxygenase 3 (from UniProt Q8BG87 1-1803)”, “binds”.
As to “182-kDa tankyrase-1–binding protein (from UniProt P58871 1-1720)”, the binding result in assay [1] is “binds”.
Regarding Mllt4 (from UniProt Q9QZQ1 1-1820), the binding result in assay [1] was “binds”.
On to “nucleoporin NUP188 homolog (from UniProt Q6ZQH8 1-1759)”, for which the binding entry in assay [1] is recorded as “binds”.
On the same count and under the same terms, as for “ran-binding protein 9 (from UniProt P69566 1-653)”, the entry is “binds”; as for Pard3 (from UniProt Q99NH2 1-1333), “binds”.
For the substance “heat shock factor protein 1 (from UniProt P38532 1-525)”, in assay [1], the binding result is listed as “binds”.
Turning to “3-ketoacyl-CoA thiolase (mouse (endogenous in MEFs))”, the binding entry in assay [1] is listed as “binds”.
Regarding Fat1 (mouse (endogenous in MEFs)), in assay [1], the binding entry is listed as “binds”.
Same read-out and setting: as for Hivep2 (from UniProt Q3UHF7 1-2430), the entry is “binds”.
Regarding Plec (from UniProt Q9QXS1 1-4691), the binding result in assay [1] is “binds”.
Same read-out and setting: as for Ctgf (from UniProt P29268 26-348), the entry is “binds”; as for “ankyrin repeat domain–containing protein 17 (from UniProt Q99NH0 1-2603)”, “binds”; as for “KAT8 regulatory NSL complex subunit 3 isoform X4 (from UniProt A2RSY1 1-903)”, “binds”.
Mpst (from UniProt Q99J99 1-297): the binding result in assay [1] is “binds”.
Still for that read-out and setting: with Usp10 (from UniProt P52479 1-792) the entry was “binds”; with Ptpn23 (from UniProt Q6PB44 1-1692), “binds”.
Consider “eukaryotic translation initiation factor 3 subunit B (from UniProt Q8JZQ9 1-803)”, for which the binding result in assay [2] and in assay [1] was “binds” throughout.
“Large proline-rich protein BAG6 isoform X8 (from UniProt Q9Z1R2 1-1154)”: the binding result in assay [1] is given as “binds”.
Take Cope (from UniProt O89079 1-308): the binding entry in assay [1] is listed as “binds”.
For Cxxc1 (from UniProt Q9CWW7 1-660), the binding result in assay [1] is on record as “binds”.
Turning to Eif3i (from UniProt Q9QZD9 1-325), the binding result in assay [1] was “binds”.
Regarding Usp5 (from UniProt P56399 1-858), the binding entry in assay [1] is on record as “binds”.
